# Test results: patent publication US20100021918A1, “METHOD FOR ASSAYING ACTION OF ANTITUMOR AGENT USING SPLICING DEFECTS AS INDEX” (Eisai R&D Management Co., Ltd., priority 2007, published 2010)
# This continues a long series; more values of the same kind are listed elsewhere.
# Test system: human colon carcinoma cell strain WiDr
# Assay: Microarray analysis (2), reviewed conditions, intron expression, Table 3
# Type: cell-based
# Procedure: WiDr cells were first suspended in RPMI1640 medium (containing 10% FBS, penicillin, and streptomycin) and seeded in a 10 cm dish (2×10^6 cells/dish). After an overnight culture in an incubator with 5% carbon dioxide gas at 37° C., the medium was changed with medium containing 14 nM of (8E,12E,14E)-7-((4-cycloheptylpiperazin-1-yl)carbonyl)oxy-3,6,16,21-tetrahydroxy-6,10,12,16,20-pentamethyl-18,19-epoxytricosa-8,12,14-trien-11-olide or containing vehicle alone. After cultured for additional six hours, TRI reagent (SIGMA) were added to the cells and the cells were harvested. RNA was purified in accordance with the protocol of TRI reagent, followed by further purification with RNeasy (QIAGEN). Absorbance at 260 nm was measured to quantify an amount of RNA. This experiment was repeated three times and RNA samples (n=3) were prepared.
# Ribosomal RNA was removed from 1 μg of each total RNA of control cells (n=3) and cells with the treatment (n=3) by using RiboMinus Human/Mouse Transcriptome Isolation Kit (Invitrogen). Single stranded cDNA synthesis, double stranded cDNA synthesis, cRNA synthesis, second single stranded cDNA synthesis, cDNA fragmentation, and cDNA labeling in order were carried out for the total RNA from which ribosomal RNA was removed, by using GeneChip Whole Transcript Sense Target Labeling and Control Reagents (Affymetrix) to make a cDNA probe. The cDNA probe was used for hybridization with Human Exon 1.0 ST Array (Affymetrix). The array was washed and stained, and luminescence intensity was measured by a scanner.
# Analysis conditions were reviewed in the data used in Example 3. Genes containing increased introns upon treatment with (8E,12E,14E)-7-((4-cycloheptylpiperazin-1-yl)carbonyl)oxy-3,6,16,21-tetrahydroxy-6,10,12,16,20-pentamethyl-18,19-epoxytricosa-8,12,14-trien-11-olide were identified.
# In order to consider the analysis conditions, variations in the data from the samples with identical conditions were studied. […] It turned out that, by analyzing under conditions where the expression level was more than 100 and change in the expression level was more than five times, a probe set with increased expression can be extracted.
# Probe sets showing that the normalized change in the level expression of the probe set in the group with the treatment was more than 5 times; the expression level of the probe set and the gene in the group with the treatment were more than 100; and probe set annotation was “extended, full, free”, were picked out. Welch's t-test was conducted with the probe sets extracted for the treated group and the control group to determine a p and q value. A gene containing the probe sets with the q value of less than 5% was determined as a candidate gene with increased expression level of the intron regions (Table 3).
# In Table 3, for each gene evaluated, gene name (Gene Name), abbreviated name (Gene Symbol), accession number (Accession), alias name (Synonym), transcription cluster number in Human Exon 1.0 ST Array (Human Exon 1.0 ST Array Transcript Cluster ID), chromosome number (Chromosome), type of strand (Strand), start region (Start), stop region (Stop), and change in expression level (Fold Change) were respectively shown.
compound,measurement,setting,value
"CCC(O)C(C)C1OC1CC(C)(O)/C=C/C=C(\C)C1OC(=O)CC(O)CCC(C)(O)C(OC(=O)N2CCN(C3CCCCCC3)CC2)/C=C/C1C (stereo not shown) [E7107, (8E,12E,14E)-7-((4-cycloheptylpiperazin-1-yl)carbonyl)oxy-3,6,16,21-tetrahydroxy-6,10,12,16,20-pentamethyl-18,19-epoxytricosa-8,12,14-trien-11-olide]",Fold Change,"gene NOL5A, intron expression, treated vs control",6.81
same,Fold Change,"gene NOL8, intron expression, treated vs control",7.25
same,Fold Change,"gene NOL9, change in expression level, treated vs control",13.58
same,Fold Change,"gene NOL11, Transcript Cluster ID 3732373, intron expression, treated vs control",9.45
same,Fold Change,"gene NOLA1, change in expression level, treated vs control",13.42
same,Fold Change,"gene NP, intron expression, treated vs control",6.61
same,Fold Change,"gene NPEPPS, intron expression, treated vs control",7.11
same,Fold Change,"gene NR1H2, Transcript Cluster ID 3839276",5.28
same,Fold Change,"gene NSUN2, intron expression, treated vs control",7.06
same,Fold Change,"gene NTSR1, Transcript Cluster ID 3892873, intron expression, treated vs control",9.10
same,Fold Change,"gene NUMA1, intron expression, treated vs control",7.25
same,Fold Change,"gene NUP54, intron expression, treated vs control",7.04
same,Fold Change,"gene NUP88, change in expression level, treated vs control",6.41
same,Fold Change,"gene NUP153, Transcript Cluster ID 2943808, intron expression, treated vs control",9.56
same,Fold Change,"gene NUP160, intron expression, treated vs control",6.74
same,Fold Change,"gene NUP214, change in expression level, treated vs control",11.18
same,Fold Change,"gene NUPL1, change in expression level, treated vs control",10.97
same,Fold Change,"gene ODC1, intron expression, treated vs control",7.27
same,Fold Change,"gene OGFR, intron expression, treated vs control",6.65
same,Fold Change,"gene ORC2L // MGC39518, intron expression, treated vs control",7.31
same,Fold Change,"gene ORC5L, Transcript Cluster ID 3065963",5.04
same,Fold Change,"gene OSBP, change in expression level, treated vs control",6.51
same,Fold Change,"gene OSBPL2, Transcript Cluster ID 3892565, intron expression, treated vs control",9.91
same,Fold Change,"gene OTUD4, Transcript Cluster ID 2788195, intron expression, treated vs control",10.88
same,Fold Change,"gene OXR1, change in expression level, treated vs control",6.50
same,Fold Change,"gene PA2G4 // (symbol continues below the shown rows), intron expression, treated vs control",7.23
same,Fold Change,"gene PAPOLA, change in expression level, treated vs control",6.46
same,Fold Change,"gene PCBP2, change in expression level, treated vs control",6.23
same,Fold Change,"gene PCGF3, intron expression, treated vs control",7.41
same,Fold Change,"gene PDCD6 // AHRR, intron expression, treated vs control",6.81
same,Fold Change,"gene PDCD7, Transcript Cluster ID 3629475, intron expression, treated vs control",9.97
same,Fold Change,"gene PDF // COG8, Transcript Cluster ID 3696524",5.20
same,Fold Change,"gene PDHX // MAPK10, Transcript Cluster ID 3326540, intron expression, treated vs control",9.81
same,Fold Change,"gene PDRG1, Transcript Cluster ID 3902609",5.09
same,Fold Change,"gene PDZD8, intron expression, treated vs control",7.39
same,Fold Change,"gene PES1, Transcript Cluster ID 3957445",5.05
same,Fold Change,"gene PGK1, change in expression level, treated vs control",6.19
same,Fold Change,"gene PIAS1, Transcript Cluster ID 3599280, intron expression, treated vs control",9.03
same,Fold Change,"gene PICALM, change in expression level, treated vs control",13.00
same,Fold Change,"gene PIGG, intron expression, treated vs control",7.22
same,Fold Change,"gene PIK3R4, Transcript Cluster ID 2695200, intron expression, treated vs control",9.79
same,Fold Change,"gene PLK1, Transcript Cluster ID 3653072, intron expression, treated vs control",10.82
same,Fold Change,"gene PLK2, change in expression level, treated vs control",14.01
same,Fold Change,"gene PLK4, Transcript Cluster ID 2742985, intron expression, treated vs control",10.88
same,Fold Change,"gene PMM2, change in expression level, treated vs control",6.22
same,Fold Change,"gene PMPCA, change in expression level, treated vs control",16.01
same,Fold Change,"gene POLR1C, Transcript Cluster ID 2908052, intron expression, treated vs control",10.29
same,Fold Change,"gene POLR1E, change in expression level, treated vs control",5.97
same,Fold Change,"gene POLR2D // WDR33, Transcript Cluster ID 2575134",5.45
same,Fold Change,"gene POLR3E, change in expression level, treated vs control",6.13
same,Fold Change,"gene POMP, change in expression level, treated vs control",5.99
same,Fold Change,"gene PPAN // PPAN-P2RY11, change in expression level, treated vs control",12.07
same,Fold Change,"gene PPARBP, change in expression level, treated vs control",13.29
same,Fold Change,"gene PPFIBP1, change in expression level, treated vs control",6.39
same,Fold Change,"gene PPP1CC, change in expression level, treated vs control",13.87
same,Fold Change,"gene PPP1R15B // PIK3C2B, Transcript Cluster ID 2452049",5.17
same,Fold Change,"gene PPP2CA, change in expression level, treated vs control",6.05
same,Fold Change,"gene PPP2R2A, intron expression, treated vs control",6.82
same,Fold Change,"gene PPP4R2, change in expression level, treated vs control",17.19
same,Fold Change,"gene PRC1 // IFRD1, Transcript Cluster ID 3639031, intron expression, treated vs control",10.49
same,Fold Change,"gene PRDM4 // PRKAR2B, intron expression, treated vs control",6.56
same,Fold Change,"gene PRKAR1A, change in expression level, treated vs control",6.49
same,Fold Change,"gene PRPF4B, change in expression level, treated vs control",6.19
same,Fold Change,"gene PRPF8, change in expression level, treated vs control",11.12
same,Fold Change,"gene PRSS23, intron expression, treated vs control",6.87
same,Fold Change,"gene PSMB7, Transcript Cluster ID 3225003, intron expression, treated vs control",8.97
same,Fold Change,"gene PSMC4, Transcript Cluster ID 3833291",5.08
same,Fold Change,"gene PSMC5, Transcript Cluster ID 3730941",5.18
same,Fold Change,"gene PSMD3, change in expression level, treated vs control",12.85
same,Fold Change,"gene PSMD6, intron expression, treated vs control",7.47
same,Fold Change,"gene PSMD7, Transcript Cluster ID 3668617, intron expression, treated vs control",8.92
same,Fold Change,"gene PSMD12, intron expression, treated vs control",6.75
same,Fold Change,"gene PTBP1, intron expression, treated vs control",6.96
same,Fold Change,"gene PTBP2, intron expression, treated vs control",6.70
same,Fold Change,"gene PTCD3 // KIF5A, intron expression, treated vs control",6.91
same,Fold Change,"gene PTEN, Transcript Cluster ID 3256689",5.25
same,Fold Change,"gene PTP4A1, change in expression level, treated vs control",6.10
same,Fold Change,"gene PTPN1, change in expression level, treated vs control",6.45
same,Fold Change,"gene PTPN12, intron expression, treated vs control",6.54
same,Fold Change,"gene PUM2, change in expression level, treated vs control",13.55
same,Fold Change,"gene PVR, change in expression level, treated vs control",14.67
same,Fold Change,"gene PVRL2, change in expression level, treated vs control",6.04
same,Fold Change,"gene PXN, intron expression, treated vs control",7.47
same,Fold Change,"gene QSER1, change in expression level, treated vs control",6.22
same,Fold Change,"gene RAB5A, change in expression level, treated vs control",11.19
same,Fold Change,"gene RAB14, change in expression level, treated vs control",10.96
same,Fold Change,"gene RAB22A, Transcript Cluster ID 3890870",5.42
same,Fold Change,"gene RABGGTB // MSH4, intron expression, treated vs control",7.07
same,Fold Change,"gene RABL5, change in expression level, treated vs control",6.24
same,Fold Change,"gene RACGAP1, change in expression level, treated vs control",6.09
same,Fold Change,"gene RAD18, Transcript Cluster ID 2662020, intron expression, treated vs control",9.94
same,Fold Change,"gene RAE1, change in expression level, treated vs control",16.46
same,Fold Change,"gene RAF1 // MAP2, Transcript Cluster ID 2663244, intron expression, treated vs control",10.61
same,Fold Change,"gene RAN, Transcript Cluster ID 3438027",5.36
same,Fold Change,"gene RANGAP1, Transcript Cluster ID 3961842",5.24
same,Fold Change,"gene RARS, Transcript Cluster ID 2839671",5.08
same,Fold Change,"gene RASA1, intron expression, treated vs control",6.60
same,Fold Change,"gene RASEF, intron expression, treated vs control",6.52
same,Fold Change,"gene RASSF7, Transcript Cluster ID 3315952",5.05
same,Fold Change,"gene RBM4, Transcript Cluster ID 3336422, intron expression, treated vs control",9.60
same,Fold Change,"gene RBM7, change in expression level, treated vs control",6.20
same,Fold Change,"gene RBM13, Transcript Cluster ID 3093259",528
same,Fold Change,"gene RBM17, change in expression level, treated vs control",6.47
